Experimental data as given in publication PMC6028838, “A new terpene coumarin microbial transformed by Mucor polymorphosporus induces apoptosis of human gastric cancer cell line MGC-803” (Archives of Pharmacal Research, 2018).

Test system: human gastric cancer cell line MGC-803
Assay: MTT antiproliferation assay, MGC-803 cells
Type: cell-based
Details: IC50 (GES-1)/IC50 (MGC-803)
Method: The human gastric cancer cell line MGC-803 and human normal gastric epithelial cell line GES-1 were cultured in DMEM containing penicillin (100 U/mL), streptomycin (100 μg/mL), and 10% FBS at 37 °C with 5% CO2. Cells that used in experiments were passaged at least three times.
Cells were seeded in 96-well plates at a density of 5 × 10^4/well and cultured at 37 °C with 5% CO2 for 24 h. And then, compounds (1–5) in various concentrations were introduced with incubation for another 48 h. Finally, 10 μL MTT (5 mg/mL) was added to each well. After 4 h incubation, the medium was removed and 150 μL DMSO was added. Absorbance was read on a Microplate Reader at 570 nm (Bio Tek, Thenceforth, USA) (Li et al. [2014]). The MTT assay aims to evaluate the antiproliferative effects of the test compounds in MGC-803 cells and the cytotoxic effects in GES-1 cells.

First: CC(C)=CCC/C(C)=C\COc1ccc2ccc(=O)oc2c1 [Compound 1, (Z)-7-((3′,7′-dimethylocta-2′,6′-dien-1′-yl)oxy)-2H-chromen-2-one]
Second: C/C(=C/CC/C(C)=C\COc1ccc2ccc(=O)oc2c1)CO [Compound 3, 7-(((2′Z,6′Z)-9′-hydroxy-3′,7′-dimethylocta-2′,6′-dien-1′-yl)oxy)-2H-chromen-2-one]
The “TI (therapeutic index)” value of the first is higher: 5.5 for the first, 5.4 for the second.

Compared with `C/C(=C/COc1ccc2ccc(=O)oc2c1)CCCO` [Compound 2, 2′-Z auraptene A], `C/C(=C/C(O)C/C(C)=C\COc1ccc2ccc(=O)oc2c1)CO` (stereo not shown) [Compound 5, 7-(((2′Z,6′Z)-5′,9′-hydroxy-3′,7′-dimethylocta-2′,6′-dien-1′-yl)oxy)-2H-chromen-2-one] is lower in “TI (therapeutic index)” value: 59.0 for the first, 3.3 for the second.
